Test results from the supplement of paper PMC12067093, “Discovery and optimisation of a covalent ligand for TRIM25 and its application to targeted protein ubiquitination” (Chemical Science, 2025).
The other results are listed elsewhere or left out.

Compound: Cc1cc(ccc1-c1ccccc1)C(=O)N1CCCN(CC1)C(=O)CCl [compound 10]
Test: probe-labelled cysteine peptide fold change vs DMSO (competition) (log2 fold change); higher = less target engagement (more negative = stronger competition)
Conditions: THP-1, incubation time: 4 h
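Further: competitive profiling in live THP-1 cells: cysteine peptides tagged with an iodoacetamide desthiobiotin (IA-DTB) probe, intensity after compound treatment relative to DMSO-treated cells.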

| Target | probe-labelled cysteine peptide fold change (10 µM) | probe-labelled cysteine peptide fold change (50 µM) |
| --- | --- | --- |
| CLUH_O75153_588_TFPPDLNFLPVPGEELPEECAR (UniProt O75153) | 0.173 | 0.292 |
| CHM_P24386_302_RMLMKFLTFCMEYEK (UniProt P24386) | 0.0319 | -0.572 |
| CHD2_O14647_500_KQPAYLGGENLELRDYQLEGLNWLAHSWCK (UniProt O14647) | -0.019 | -0.189 |
| CISD2_Q8N5K1_110_TFPACDGSHNK (UniProt Q8N5K1) | -0.176 | -0.321 |
| CGAS_Q8N884_199_CDSAFR (UniProt Q8N884) | -0.166 | 0.0725 |
| CHD4_Q14839_493_CTCPALK (UniProt Q14839) | 0.0162 | 0.156 |
| CHAMP1_Q96JM3_592_CDILVQEELLASPK (UniProt Q96JM3) | -0.173 | -0.0899 |
| CLIP2_Q9UDT6_525_RGEIEELQQCLLHSGPPPPDHPDAAEILR (UniProt Q9UDT6) | -0.0951 | 0.134 |
| CLTC_Q00610_934_GQCDLELINVCNENSLFK (UniProt Q00610) | 0.138 | 0.156 |
| CLTCL1_P53675_918_RDPHLACVAYER (UniProt P53675) | 0.018 | 0.107 |
| CLP1_Q92989_311_GCFYPHAFNVK (UniProt Q92989) | 0.0944 | 0.2 |
| CIR1_Q86X95_10_SFANFMCK (UniProt Q86X95) | 0.235 | -0.0587 |
| CIP2A_Q8TCG1_615_DQICDVR (UniProt Q8TCG1) | -0.273 | -0.704 |
| CHORDC1_Q9UHD1_59_TTDFSDFLSIVGCTK (UniProt Q9UHD1) | 0.109 | 0.0902 |
| CISD2_Q8N5K1_92_VVNEINIEDLCLTK (UniProt Q8N5K1) | -0.127 | -0.666 |
| CIT_O14578_1019_TTCTMLEEQVMDLEALNDELLEK (UniProt O14578) | 0.0843 | -0.0477 |
| CIAO1_O76071_19_CWFLAWNPAGTLLASCGGDRR (UniProt O76071) | -0.472 | -0.0889 |
| CHTF18_Q8WVB6_373_VALLCGPPGLGK (UniProt Q8WVB6) | 0.0809 | 0.0137 |
| CGGBP1_Q9UFW8_92_QRPLTASLQCNSTAQTEK (UniProt Q9UFW8) | -0.269 | -0.375 |
| CLIC1_O00299_178_FLDGNELTLADCNLLPK (UniProt O00299) | -0.111 | -0.000847 |
| CHAF1B_Q13112_191_SYVQGVTWDPLGQYVATLSCDR (UniProt Q13112) | 0.464 | 0.729 |
| CLUH_O75153_200_ERPLCPLQPQNR (UniProt O75153) | -0.171 | -0.0345 |

| Target | probe-labelled cysteine peptide fold change (10 µM) | probe-labelled cysteine peptide fold change (50 µM) |
| --- | --- | --- |
| CHAF1A_Q13111_7_MLEELECGAPGAR (UniProt Q13111) | 0.183 | 0.0367 |
| CHPF_Q8IZ52_266_MLLQQLRPHLEGCR (UniProt Q8IZ52) | 0.0374 | 0.0412 |
| CLK2_P49760_180_VVQCVDHR (UniProt P49760) | 0.117 | 0.416 |
| CHD4_Q14839_1019_CCNHPYLFPVAAMEAPK (UniProt Q14839) | 0.0187 | -0.293 |
| CHMP5_Q9NZZ3_20_APPPSLTDCIGTVDSR (UniProt Q9NZZ3) | -0.0163 | -0.364 |
| CLASP1_Q7Z460_173_IVPHICNLLGDPNSQVR (UniProt Q7Z460) | 0.117 | -0.368 |
| CHUK_O15111_30_LGTGGFGNVCLYQHR (UniProt O15111) | 0.0193 | -0.259 |
| CINP_Q9BW66_120_GICELENYHYGEESK (UniProt Q9BW66) | 0.0309 | 0.44 |
| CHST14_Q8NCH0_159_VACSNWK (UniProt Q8NCH0) | -0.23 | -0.087 |
| CHCHD3_Q9NX63_183_YESHPVCADLQAK (UniProt Q9NX63) | -0.459 | 0.402 |
| CIZ1_Q9ULV3_687_QSLRPFCTVCNR (UniProt Q9ULV3) | -0.0792 | -0.0645 |
| CHAF1A_Q13111_878_SAGSMCITQFMK (UniProt Q13111) | -0.385 | -0.565 |
| CIAO3_Q9H6Q4_246_IYHVTVMPCYDK (UniProt Q9H6Q4) | -0.227 | -0.28 |
| CIC_Q96RK0_506_SSFTHCRPPLDPEPPGPPDPPVAFGK (UniProt Q96RK0) | -0.257 | -0.226 |
| CHAF1A_Q13111_465_TLAGSCGK (UniProt Q13111) | -0.182 | -0.674 |
| CHD6_Q8TD26_172_SCTDSAAR (UniProt Q8TD26) | 0.0434 | -0.12 |
| CHD8_Q9HCK8_1116_EACHIIPHDFHLQAMVR (UniProt Q9HCK8) | 0.0841 | -0.0815 |
| CHORDC1_Q9UHD1_176_TYQGLESLEEVCVYHSGVPIFHEGMK (UniProt Q9UHD1) | 0.0745 | 0.0343 |
| CLASP2_O75122_1184_VLCPIIQTADYPINLAAIK (UniProt O75122) | 0.186 | 0.199 |
| CIT_O14578_1655_ALCLVDVKK (UniProt O14578) | 0.137 | -0.115 |
| CMIP_Q8IY22_455_TLGCYVEILK (UniProt Q8IY22) | 0.249 | -0.172 |
| CLASP2_O75122_221_LIPLITSNCTSK (UniProt O75122) | -0.0194 | 0.0911 |

A different layout for part of the listing above.
Target,probe-labelled cysteine peptide fold change (10 µM),probe-labelled cysteine peptide fold change (50 µM)
CLK2_P49760_180_VVQCVDHR (UniProt P49760),0.117,0.416
CHD4_Q14839_1019_CCNHPYLFPVAAMEAPK (UniProt Q14839),0.0187,-0.293
CHMP5_Q9NZZ3_20_APPPSLTDCIGTVDSR (UniProt Q9NZZ3),-0.0163,-0.364
CLASP1_Q7Z460_173_IVPHICNLLGDPNSQVR (UniProt Q7Z460),0.117,-0.368
CHUK_O15111_30_LGTGGFGNVCLYQHR (UniProt O15111),0.0193,-0.259

Going on with the list:

| Target | probe-labelled cysteine peptide fold change (10 µM) | probe-labelled cysteine peptide fold change (50 µM) |
| --- | --- | --- |
| CHST11_Q9NPF2_89_DQVTDTCR (UniProt Q9NPF2) | -0.197 | -0.0677 |
| CHORDC1_Q9UHD1_24_FDPETNSDDACTYHPGVPVFHDALK (UniProt Q9UHD1) | -0.105 | -0.041 |
| CHAF1B_Q13112_283_RPIAHLPCPGK (UniProt Q13112) | 0.00463 | -0.0866 |
| CIAO2B_Q9Y3D0_158_VAAALENTHLLEVVNQCLSAR (UniProt Q9Y3D0) | -0.0331 | -0.264 |
| CHM_P24386_406_HSVQCLVVDK (UniProt P24386) | -0.111 | 0.143 |
| CHCHD3_Q9NX63_112_ICSEEER (UniProt Q9NX63) | -0.514 | -0.112 |
| CLTCL1_P53675_918_DPHLACVAYER (UniProt P53675) | 0.036 | -0.146 |
| CLIP1_P30622_265_YFQCQPK (UniProt P30622) | 0.0956 | 0.0426 |
| CHML_P26374_187_TCMHTVSDK (UniProt P26374) | -0.0578 | 0.0466 |
| CHPF2_Q9P2E5_223_YCHGGFGYLLSR (UniProt Q9P2E5) | -0.231 | 0.173 |
| CLTC_Q00610_666_RAVVHTHLLNPEWLVNYFGSLSVEDSLECLR (UniProt Q00610) | 0.121 | 0.496 |
| CHD1L_Q86WJ1_123_FAPGLSCVTYAGDKEER (UniProt Q86WJ1) | -0.185 | -0.322 |
| CLTC_Q00610_1528_QSVELCK (UniProt Q00610) | -0.166 | 0.0303 |
| CKAP5_Q14008_1500_CEMPELVQHK (UniProt Q14008) | -0.307 | -0.104 |
| CHAF1B_Q13112_6_VITCEIAWHNK (UniProt Q13112) | 0.0145 | 0.0667 |
| CLTC_Q00610_926+934_GQCDLELINVCNENSLFK (UniProt Q00610) | 0.00128 | -0.0309 |
| CHKB_Q9Y259_282_GFDIGNHFCEWVYDYTHEEWPFYK (UniProt Q9Y259) | 0.214 | 0.198 |
| CHD1L_Q86WJ1_123_FAPGLSCVTYAGDK (UniProt Q86WJ1) | 0.111 | 0.441 |
| CLTC_Q00610_824_VNPSRLPVVIGGLLDVDCSEDVIK (UniProt Q00610) | 0.122 | 0.208 |
| CKB_P12277_254_FCTGLTQIETLFK (UniProt P12277) | 0.0607 | 0.0404 |
| CLUH_O75153_753_DAAAFLLSCQIPGLVK (UniProt O75153) | 0.0917 | 0.00616 |
| CHAF1A_Q13111_761_EFQEHCR (UniProt Q13111) | 0.146 | 0.109 |

| Target | probe-labelled cysteine peptide fold change (10 µM) | probe-labelled cysteine peptide fold change (50 µM) |
| --- | --- | --- |
| CLCN3_P51790_783_QCLVTHNGR (UniProt P51790) | 0.151 | 0.274 |
| CLUH_O75153_84_ILAPGIEPFSLQVSPQEMVQEIHQVLMDREDTCHR (UniProt O75153) | 0.0397 | -0.121 |
| CLIC1_O00299_223_EEFASTCPDDEEIELAYEQVAK (UniProt O00299) | -0.171 | 0.0241 |
| CKAP5_Q14008_1019+1026_STPTDLILCVPHLYSCLEDR (UniProt Q14008) | 0.223 | 0.335 |
| CLTC_Q00610_926_GQCDLELINVCNENSLFK (UniProt Q00610) | -0.0482 | -0.037 |
| CLPX_O76031_586_LLLEPMFEVPNSDIVCVEVDK (UniProt O76031) | -0.337 | -0.0886 |
| CIAPIN1_Q6FI81_249+251_NCTCGLAEELEK (UniProt Q6FI81) | -0.0271 | -0.453 |
| CIAO1_O76071_261_TIYDIAWCQLTGALATACGDDAIR (UniProt O76071) | 0.161 | -0.164 |
| CHST13_Q8NET6_81_DLLNSACSR (UniProt Q8NET6) | -0.0161 | -0.121 |
| CFL1_P23528_39_AVLFCLSEDKK (UniProt P23528) | -0.0528 | -0.132 |
| CIAO3_Q9H6Q4_270_DVDCVLTTGEVFR (UniProt Q9H6Q4) | -0.391 | -0.19 |
| CLTC_Q00610_436_YESLELCRPVLQQGR (UniProt Q00610) | 0.0476 | 0.249 |
| CFL1_P23528_147_CTLAEK (UniProt P23528) | -0.206 | -0.169 |
| CHTF18_Q8WVB6_825_LEPNVEELCR (UniProt Q8WVB6) | -0.2 | 0.191 |
| CHEK1_O14757_48_AVDCPENIK (UniProt O14757) | -0.255 | 0.47 |
| CLTC_Q00610_436_FQSVPAQPGQTSPLLQYFGILLDQGQLNKYESLELCRPVLQQGR (UniProt Q00610) | 0.0469 | -0.811 |
| CLUH_O75153_551_HQVLNDRDEEVELCSSVECK (UniProt O75153) | -0.0412 | -0.0308 |
| CHORDC1_Q9UHD1_86_ELCELK (UniProt Q9UHD1) | -0.0657 | 0.205 |
| CISD3_P0C7P0_98_MVALCTCK (UniProt P0C7P0) | -0.00922 | -0.156 |
